Fewer than 10 of roughly 2,000 compounds were called active.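 How the source made its calls: active means growth inhibition of at least 75% in every replicate, which also brings the mean inhibition to 75% or more; inconclusive means mean inhibition 75% or more but some replicate under 75%; inactive means the rest.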 The list shows a part of the results.

The assay is described as follows: growth inhibition of PfHsp90-dependent yeast, primary screen, antimalarial PfHsp90 inhibitor project, S. cerevisiae, BacTiter-Glo luminescence (AID 504594).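 Further: 0% = DMSO neutral control wells and 100% = 20 µM radicicol control wells; higher value means stronger growth inhibition because the sign is flipped.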 Particulars: S. cerevisiae expressing PfHsp90, BacTiter-Glo growth, 48 h; at 9.4 µM; active compounds read high.
In the case of `Cc1ccsc1/C=N\NC(=O)c1ccc2c(c1)OCO2`, the growth inhibition is inactive: -11.9%.
Consider `CNCCCC1c2ccccc2C=Cc2ccccc21`, for which the growth inhibition is inactive: 4.11%.
Next, `O=C(O)CC(O)C(=O)O` (stereo not given): inactive: 2.49%; `O=C(Nc1cccc(C(=O)O)c1)/C(=C\c1ccccc1)NC(=O)c1ccccc1`: inactive: -1.43%; `CC(C)N(Cc1nccn1C)C(=O)CC1C(=O)NCCN1Cc1ccccc1C(F)(F)F` (stereo not given): inactive: -0.671%.
Next, `C[C@]12CCC(=O)C=C1CC[C@@H]1[C@@H]2[C@@H](O)C[C@@]2(C)[C@H]1CC[C@]2(O)C(=O)CO`: inactive: 7.79%; `CC(=O)N1CCN(c2ccc(NC(=O)/C=C/c3ccccc3)cc2)CC1`: inactive: 10.6%.
As for `COc1ccc(-c2coc3c(CN4CCOCC4)c(O)ccc3c2=O)cc1`, the growth inhibition is inactive: -0.608%.
For `N/C(=N\OC(=O)c1cccc(Br)c1)c1ccncc1`, the growth inhibition was inactive: -13%.
For `Nc1cccc2nc3ccccc3cc12`, the growth inhibition is inactive: -18%.
As for `O=C(NC1CC1)C1CCN(C2CCN(C(=O)Cc3ccc(F)cc3)CC2)CC1`, the growth inhibition is inactive: -1.38%.
On to `CCCc1cc(=O)[nH]c(=S)[nH]1`, for which the growth inhibition was inactive: -10.9%.
Turning to `COC(=O)CN1C(=S)N(c2ccc(F)cc2)C(=O)C1CC(=O)Nc1ccccc1` (stereo not given), the growth inhibition was inactive: 9.33%.
The value for `COc1ccc(CCN(C)CCCC(C#N)(c2ccc(OC)c(OC)c2)C(C)C)cc1OC` (stereo not given) was inactive: 2.9%.
The value for `C[C@]12CC[C@@H]3c4ccc(O)cc4CC[C@H]3[C@@H]1CC[C@@H]2O` was inactive: -10.1%; that for `CCC[C@@H]1C[C@@H](C(=O)N[C@H]([C@@H](C)O)[C@H]2O[C@H](SC)[C@H](O)[C@@H](O)C2O)N(C)C1` (stereo not given in full) was inactive: -9.09%.
Turning to `COc1cccc(OC)c1C(=O)Nc1nc2ccc([N+](=O)[O-])cc2s1`, the growth inhibition was inactive: -13.1%.
As to `CCCN(CCC)S(=O)(=O)c1ccc(C(=O)O)cc1`, the growth inhibition was inactive: -0.263%.
`COc1ccc(C2NC(C(=O)O)Cc3c2[nH]c2ccccc32)cc1CN1CCN(c2ccc(F)cc2)CC1` (stereo not given): the growth inhibition was inactive: -5.92%.
Take `CSCCC1NC2(C(=O)Nc3ccc(Cl)cc32)[C@@H]2C(=O)N(C3CCCC3)C(=O)[C@H]12` (stereo not given in full): the growth inhibition is inactive: -3.34%.
`CN1C2CCC1CC(OC(c1ccccc1)c1ccccc1)C2` (stereo not given): the growth inhibition was inactive: -4.57%.
The value for `CN(C)CCOC(c1ccccc1)c1ccccc1` was inactive: -9.86%.
As for `CN1CCc2cccc3c2[C@@H]1Cc1ccc(O)c(O)c1-3`, the growth inhibition is inactive: -2.67%.
The value for `O=C(NCc1ccco1)/C(=C\C=C\c1ccccc1)NC(=O)c1ccccc1Br` was inactive: -0.463%.
Take `CO[C@@H]1O[C@@H]2COC(c3ccccc3)O[C@@H]2[C@@H](OC)[C@@H]1O` (stereo not given in full): the growth inhibition was inactive: 19.6%.
On to `CC(=O)N1CCN(c2ccc(OC[C@H]3CO[C@](Cn4ccnc4)(c4ccc(Cl)cc4Cl)O3)cc2)CC1`, for which the growth inhibition is active: 94.4%.
Turning to `COc1ccc(S(N)(=O)=O)cc1C(N)=O`, the growth inhibition was inactive: 4.32%.
Take `CC(=O)[C@H]1CC[C@H]2[C@@H]3CCC4=CC(=O)CC[C@]4(C)[C@H]3CC[C@]12C`: the growth inhibition is inactive: -16.8%.
The value for `Cc1ccc2[nH]c3c(=O)n(CCc4cnc[nH]4)cnc3c2c1` was inactive: -0.612%.
For `COC(=O)C1=CN(Cc2cccs2)C=C(C(=O)OC)C1c1cccc(Cl)c1`, the growth inhibition is inactive: -7.66%.
As for `CC(C)NC[C@@H](O)c1ccc(O)c(O)c1`, the growth inhibition was inactive: 4.1%.
Consider `O=C(/C=C/c1ccco1)NCc1ccc2c(c1)OCO2`, for which the growth inhibition is inactive: 8.47%.
As for `CC1=CC(C)(C)N2C(=O)C3(NCCc4c3[nH]c3ccccc43)c3cc(C)cc1c32` (stereo not given), the growth inhibition was inactive: -1.26%.
For the compound `COc1ccc(CC(=O)N2CC3(C)CC2CC(C)(C)C3)cc1OC` (stereo not given), the growth inhibition is inactive: 12.2%.
As for `O=c1cnn([C@@H]2O[C@H](CO)[C@@H](O)[C@H]2O)c(=O)[nH]1`, the growth inhibition is inactive: 4.81%.
`C=CCN1C(=O)c2oc3ccccc3c(=O)c2C1c1ccc(O)c(OC)c1` (stereo not given): the growth inhibition is inactive: -10.9%.
Regarding `COc1cccc2c(=O)c3ccccc3oc12`, the growth inhibition is inactive: -11.8%.
In the case of `CN(C)CCN(Cc1ccccc1)c1ccccn1`, the growth inhibition was inactive: -3.86%.
Turning to `CC1(C)C(=O)OC(c2cccs2)C2(CCCCC2)C1=O` (stereo not given), the growth inhibition is inactive: 1.41%.
`CC(NC(=O)c1ccc(N2CCNCC2)c([N+](=O)[O-])c1)C12CC3CC(CC(C3)C1)C2` (stereo not given): the growth inhibition was inactive: 1.77%.
`Cn1c(=O)oc2cc(S(=O)(=O)N3CCc4ccccc4C3)ccc21`: the growth inhibition is inactive: -3.63%.
As to `CC(NC(=O)OCc1ccccc1)C(=O)N1CC(O)CC1C(=O)O` (stereo not given), the growth inhibition is inactive: -2.18%.
For `COc1ccc(C(=O)Oc2ccc3c(C)cc(=O)oc3c2C(C)=O)cc1`, the growth inhibition is inactive: -0.103%.
Take `NS(=O)(=O)c1ccc(CNC(=O)c2cc(-c3ccccc3)nc3ccccc23)cc1`: the growth inhibition is inactive: 2.94%.
Take `Fc1ccc(NC(=S)Nc2ccccc2Cl)cc1`: the growth inhibition was inactive: 3.46%.
As for `CC(=O)OC[C@H]1O[C@@H](n2ncc(=O)[nH]c2=O)[C@H](OC(C)=O)[C@@H]1OC(C)=O`, the growth inhibition was inactive: 6.23%.
On to `O=C(O)C1Sc2[nH]c(=O)sc2C2c3ccc(O)cc3OC(=O)C12` (stereo not given), for which the growth inhibition was inactive: -1.06%.
For the compound `CN1C(=O)C(O)(CC(=O)c2ccccc2O)c2cc(Br)ccc21` (stereo not given), the growth inhibition was inactive: 1.22%.
Regarding `COc1cc2c(cc1OC)C(=S)NC(C)(C)C2`, the growth inhibition is inactive: 0.946%.
`COc1ccc(C2NC(=O)c3ccccc3N2)cc1OC` (stereo not given): the growth inhibition was inactive: -3.61%.
With `O=C(/C=C/c1ccco1)N1CCN(c2ccccc2)CC1`, the growth inhibition is inactive: 2.4%.
In the case of `O=C(O)/C=C/c1ccc(O)c(O)c1`, the growth inhibition is inactive: 8.18%.
In the case of `O=C(Nc1ccc(Cl)cn1)Nc1ccccc1Cl`, the growth inhibition was inactive: -7.62%.
As for `C[N+](C)(C)CCCCCCCCCC[N+](C)(C)C`, the growth inhibition is inactive: 3.9%.
Regarding `Cc1[nH]c2ccccc2c1/C=C/c1nc2ccccc2c(=O)n1CCO`, the growth inhibition was inactive: 2.99%.
With `CC1=C(/C=C/C(C)=C/C=C/C(C)=C/C(=O)O)C(C)(C)CCC1`, the growth inhibition was inactive: -3.35%.
Next, `O=C(Nc1ccccc1)c1ccccc1CCc1ccccc1`: inactive: -14.9%.
On to `Cc1ccc(CN2CCN(CCCc3ccccc3)CC2CCO)cc1` (stereo not given), for which the growth inhibition was inactive: -17.6%.
On to `CCN(Cc1cnn(C)c1)Cc1nc(C(c2ccccc2)c2ccccc2)no1`, for which the growth inhibition is inactive: 6.67%.
As to `CCCCCC#CCC#CCC#CCC#CCCCC(=O)O`, the growth inhibition was inactive: -41.8%.
On to `Cc1cc(=O)oc2cc(OC(C)C(=O)NCC3CCCO3)ccc12` (stereo not given), for which the growth inhibition is inactive: -2.4%.
On to `CCO/C([O-])=N/c1c[n+](N2CCOCC2)no1`, for which the growth inhibition is inactive: -3.56%.
For the compound `COc1ccc(CCNc2ncnc3c2[nH]c2cc(OC)c(OC)cc23)cc1OC`, the growth inhibition was inactive: 10%.
Take `COCCOC(=O)c1c(C)oc2ccc(OCc3cc(C(=O)OC)oc3C)cc12`: the growth inhibition is inactive: 2.24%.
On to `O=C1C(=O)c2ccccc2C(O)=C1c1ccccc1F`, for which the growth inhibition was inactive: -6.57%.
Take `COc1cc(C(=O)NCCCCCC(=O)O)cc(OC)c1OC`: the growth inhibition is inactive: -10.6%.
Consider `COc1cc(OC)c(C2C(C#N)=C(N)OC3=C2C(=O)CC(C)(C)C3)cc1OC` (stereo not given), for which the growth inhibition was inactive: 12.3%.
Turning to `COC(=O)c1cc(C(=O)NCCC(C)C)cc([N+](=O)[O-])c1`, the growth inhibition is inactive: 6.94%.
In the case of `COc1cccc(-n2cc(CNCc3c(C(=O)N(C)C)nc4ccc(Cl)cn34)cn2)c1`, the growth inhibition was inactive: -7.02%.
Take `CNS(=O)(=O)c1ccc(C)cc1`: the growth inhibition was inactive: -0.442%.
Consider `COC(=O)c1ccc2c(c1)C(=O)/C(=C/c1ccc(O)cc1)O2`, for which the growth inhibition is inactive: 5.17%.
On to `CN(C)C(=O)C12CCC(C)(c3nc4ccccc4nc31)C2(C)C` (stereo not given), for which the growth inhibition is inactive: 17%.
Take `C/C(=N\NC(=O)C1(C)CC1(Br)Br)c1ccc([N+](=O)[O-])cc1` (stereo not given): the growth inhibition was inactive: 4.78%.
Take `c1cnc(N2CCN(Cc3ccc4c(c3)OCO4)CC2)nc1`: the growth inhibition was inactive: -1.73%.
`CCC(CO)NCCNC(CC)CO` (stereo not given): the growth inhibition is inactive: 16.3%.
In the case of `CC(C)[C@H]1CN(C)CCN1Cc1cn(C)nc1-c1cccc(Cl)c1`, the growth inhibition is inactive: -4.12%.
For the compound `CC1CCN(CCOCCOc2ccccc2Br)CC1`, the growth inhibition is inactive: 13.2%.
With `CC(C)C(=O)Nc1c(O)c2ccccc2[nH]c1=O`, the growth inhibition is inactive: -8.8%.
Turning to `O=C(Nc1c(C(=O)O)[nH]c2ccccc12)NC1CCCCC1`, the growth inhibition was inactive: -6.79%.
Next, `CC1(C)CC(=O)c2c(nc3ccccc3c2N)C1`: inactive: -21%.
`CCOc1cc(C)cc2oc(=O)cc(-c3ccccc3)c12`: the growth inhibition is inactive: 6.4%.
In the case of `OC[C@H]1O[C@@H](n2cnc3c(NC4CCCC4)ncnc32)[C@H](O)[C@@H]1O`, the growth inhibition is inactive: 7.42%.
Regarding `C1COC(NC(C2CC2)C2CC2)=N1`, the growth inhibition is inactive: -5.96%.
Regarding `NC(N)=N/N=C/c1ccc(OS(=O)(=O)c2ccccc2)cc1`, the growth inhibition is inactive: 5.68%.
Next, `O=C1c2ccccc2C(=O)N1/N=C/c1ccc(Oc2ccc([N+](=O)[O-])cn2)cc1`: inactive: 4.52%.
Next, `COc1ccc(CCN=C(N)C(C)c2ccccc2)cc1OC` (stereo not given): inactive: 11.4%; `COC1CCN(C(=O)c2ccc(OC3CCN(Cc4ccccn4)CC3)cc2)CC1`: inactive: 11.7%.
For `Cc1ccc(S(=O)(=O)Nc2ccc(S(=O)(=O)Nc3cc(C)nc(C)n3)cc2)cc1`, the growth inhibition was inactive: -2.59%.
Take `CCN(CC)CCCNC(=O)C1c2ccccc2Oc2ccccc21`: the growth inhibition is inactive: 2.85%.
With `Cc1nc(N)sc1C(=O)N/N=C/c1ccco1`, the growth inhibition is inactive: -1.68%.
As to `Cc1ccc(S(=O)(=O)N[C@@H](Cc2ccccc2)C(=O)CCl)cc1`, the growth inhibition was inactive: 63.2%.
Take `COc1ccc(OCC(=O)N2c3ccc(C)cc3C3CN(C)CCC32)cc1` (stereo not given): the growth inhibition was inactive: 13.7%.
For the compound `COc1cccc(CN2CCN(C(=O)c3ccc(-c4ccccc4)cc3)CC2)c1`, the growth inhibition was inactive: -6.01%.
For the compound `C1CCC(C(CC2CCCCN2)C2CCCCC2)CC1` (stereo not given), the growth inhibition is inactive: 12.9%.
On to `Clc1ccc(OCCCN2CCCCC2)c(Br)c1`, for which the growth inhibition is inactive: 1.98%.
